Results taken from patent US20220017620A1.
No constants are given. Whether binding was seen depends on the method and setting. Binding calls can cover weak binding; strength is not graded here.

Assays:
[1] = biological target: antigen B7-H3 (R&D); experiment: ELISA, coated B7-H3 (R&D), IgG1 antibody
[2] = biological target: antigen B7-H3 (R&D); experiment: ELISA on coated B7-H3 (R&D), detection with goat anti-human IgG (Fc)-HRP
[3] = biological target: antigen B7-H3 (R&D); experiment: ELISA on coated B7-H3
[4] = biological target: antigen B7-H3 (R&D); experiment: ELISA on B7-H3 protein

Row | Binder | binding [1] | binding [2] | binding [3] | binding [4]
1 | P1D1 full-length IgG1 antibody (antibody, V domains shown) VH: QVQLVQSGAEVKKPGESLKISCKGSGYSFTSYWIGWVRQMPGKGLEWMGIIYPGDSDTRYSPSFQGQVTISADKSISTAYLQWSSLKASDTAMYYCARRSVAGLDYWGQGTLVTVSS VL: KTVVTQPPSASGTPGQRVTISCSGSSSNIGSKYVYWYQQLPGTAPRLLIYRNNQRPSGVPDRFSGSKSGTSASLAISGLRSEDESDYYCASWDDRLKGYAFGTGTKVTVL | binds | binds |  | 
2 | P3H6 full-length IgG1 antibody (antibody, V domains shown) VH: QVQLVQSGAEVKKPGESLKISCKGSGYSFSNYWIGWVRQMPGKGLEWMGIIYPGDSDTRYSPSFQGQVTISADKSISTAYLQWSSLKASDTAMYYCARSRGYPTNYMDVWGRGTTVTVSS VL: QAVLTQPPSVSGAPRQRVTISCSGSSSNIGNNIVSWYQHLPGKAPRLLIYRERQRPSGVPDRFSGSKSGTSASLAISGLRSEDEADYYCATWDDSLNSWVFGGGTKLTVL | binds |  | binds | 
3 | P7F10 full-length IgG1 antibody (antibody, V domains shown) VH: QVQLQQSGGGLVQPGGSLRLSCAASGFTFSSYPMSWVRQAPGKGLEWVSVISGSGGSTFYADSVKGRFTISRDNSKNTLYLQVNSLRAEDTAVYYCAKDGRTLSGMDVWGQGTTVTVSS VL: QPVLTQPPSASGTPGQRVTISCSGSSSNIGSNPVNWYQQLPGTAPKLLIYNNNQRPSGVPDRFSGSKSGTSGSLAISGLQSEDEAHYYCAAWDVSLKEVFGGGTKVTVL | binds |  | binds | 
4 | P9A12 full-length IgG1 antibody (antibody, V domains shown) VH: QVTLKESGGGLVQPGGSLRLSCAASGFTFSSYAMSWVRQAPGKGLEWVSAISGSGGSTYYADSVKGRFTISRDNSKNTLYLQMNSLRAEDTAVYYCARGAGIDAFDIWGQGTMVTVSS VL: QSALTQPASVSGSPGQSITISCTGTSSDVGAYNYVTWYQQYPGKAPKLMIYDVSERPSGVSNRFSGSKSGNTASLTISGLQAEDEADYYCSSFTSSISWVFGGGTKLTVL | binds |  | binds | 
5 | P1G2 full-length IgG1 antibody (antibody, V domains shown) VH: QVQLQQSGAEVKKPGSSVKVSCKASGGTFSSYAISWVRQAPGQGLEWMGRIIPILGIANYAQKFQGRVTITADKSTSTAYMELSSLRSEDTAVYYCAVNYYDSSGYYSDYWGQGTLVTVSS VL: SYELTQPPSASGSPGQSVTISCTGTSSDVGGYNYVSWYQQHPGKAPRLMIYGVSQRPSGVPDRFSGSKSGNTASLTVSGLQAEDEADYYCSSYANNNYVFGTGTKVTVL | binds | binds |  | binds
6 | P2E5 full-length IgG1 antibody (antibody, V domains shown) VH: QVTLKESGGGLVQPGGSLRLSCAASGFTFSNSYMTWVRQAPGMGLEWVASMKPDGSVKHYVDSVKGRFTISRDNTKNSLDLQMNSLRAEDTAVYYCSSYDTRWGWFDPWGEGTLVTVSS VL: QTVVTQEPSFSVSPGGTVTLTCGLNSGSVSTSYFPSWYQQTPGQAPRTLIYNTNTRSSGVPDRFSGSILGNKAALTITGAQADDESDYYCLLYMDSGPHWVFGGGTKLTVL | binds | binds |  | 
7 | P2E3 full-length IgG1 antibody (antibody, V domains shown) VH: QVQLVQSGAEVKKPGESLKISCKGSGYSFTSYWIGWVRQMPGKGLEWMGIIYPGDSDTRYSPSFQGQVTISADKSISTAYLQWSSLKASDTAMYYCARRSREGFDPWGQGTLVTVSS VL: QAVLTQPSSASGTPGQRVTMSCSGAASNIGKNFVYWYQQLPGRAPRLLISRNIQRPSEVPDRFSGSKSGTSASLAISGLQSEDEADYYCAAWDDSLNGFVFGTGTAVTVL | no binding (tested: 2000 ng/ml (highest concentration)) |  |  | 
